Results are given in words; binding and its absence hold for the method and conditions named. Some binding calls cover weakened binding; strength is not graded here.
T1: TL1A on HEK293 cells overexpressing TL1A (UniProt O95150)
T1 sequence (looked up): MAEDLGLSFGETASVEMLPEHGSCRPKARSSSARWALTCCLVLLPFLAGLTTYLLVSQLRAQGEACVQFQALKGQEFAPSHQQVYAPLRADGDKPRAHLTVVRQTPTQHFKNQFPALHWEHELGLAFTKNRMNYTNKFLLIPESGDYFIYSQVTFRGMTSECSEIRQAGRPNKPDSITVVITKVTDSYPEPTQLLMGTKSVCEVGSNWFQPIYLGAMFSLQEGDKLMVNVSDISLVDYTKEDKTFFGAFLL

By UniProt entry, the sequences of proteins in these tests, tags left out. Where a name states a change or a piece, a line headed by the entry shows the natural chain unless it says otherwise. Chains listed by the source or under a name are the forms on record and can include a tag or linker.
Cyno TL1A (G7PRK8, form named): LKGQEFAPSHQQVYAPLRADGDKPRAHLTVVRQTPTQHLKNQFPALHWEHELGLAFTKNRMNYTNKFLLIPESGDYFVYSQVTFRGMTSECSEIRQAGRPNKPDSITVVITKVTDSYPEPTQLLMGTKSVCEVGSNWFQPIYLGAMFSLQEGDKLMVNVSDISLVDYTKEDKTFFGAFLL


Legend:
[1] = target: Cyno TL1A (cyno) (UniProt G7PRK8); test: SPR, mAb format
[2] = target: T1, TL1A on HEK293 cells overexpressing TL1A; test: flow cytometry, HEK293 cells overexpressing TL1A

Binder	binding [1]	binding [2]
Antibody 1 of Sequence Table 1, mAb format (antibody, human IgG1, kappa, N297A, V domains shown) VH: QVQLQESGPGLVRPSQTLSLTCTVSGFDIQDTYMHWVRQRPGRGLEWMGRIEPAGGHTKYNPSLKSRVTITRDTSKNQVSLRLSSVTAADTAVYYCASSGGMPDLWGQGSLVTVSS VL: DIQMTQSPSSLSASVGDRVTITCRASQGVEYMYWYQQKPGKAPKLLIYGASNLASGVPSRFSGSGSGTDFTFTISSLQPEDIATYYCQQWEGNPRTFGQGTKVEIKR	binds	binds
Antibody 2 of Sequence Table 1, mAb format (antibody, human IgG1, kappa, N297A, V domains shown) VH: QVQLQESGPGLVRPSQTLSLTCTVSGLDPDDTYMHWVRQRPGRGLEWMGRIEPAGGHTKYNPSLKSRVTITRDTSKNQVSLRLSSVTAADTAVYYCVISGGLPDVWGQGSLVTVSS VL: DIQMTQSPSSLSASVGDRVTITCRASSSVSYMYWYQQKPGKAPKLLIYATSNLASGVPSRFSGSGSGTDFTFTISSLQPEDIATYYCQQWEGNPRTFGQGTKVEIKR	binds	binds
Antibody 3 of Sequence Table 1, mAb format (antibody, human IgG1, kappa, N297A, V domains shown) VH: QVQLQESGPGLVRPSQTLSLTCTVSGFDIQDTYMHWVRQRPGRGLEWMGRIEPAGGHTKYNPSLKSRVTITRDTSKNQVSLRLSSVTAADTAVYYCVRSGGLPDAWGQGSLVTVSS VL: DIQMTQSPSSLSASVGDRVTITCRASQGVRYMYWYQQKPGKAPKLLIYGASNLASGVPSRFSGSGSGTDFTFTISSLQPEDIATYYCQQWEGNPRTFGQGTKVEIKR	binds	binds
Antibody 5 of Sequence Table 1, mAb format (antibody, human IgG1, kappa, N297A, V domains shown) VH: QVQLQESGPGLVRPSQTLSLTCTVSGFDMQDTYMHWVRQRPGRGLEWMGRIEPASGHTKYNPSLKSRVTITRDTSKNQVSLRLSSVTAADTAVYYCVRSGGLPDVWGQGSLVTVSS VL: DIQMTQSPSSLSASVGDRVTITCRASQGVMYMYWYQQKPGKAPKLLIYGASNLASGVPSRFSGSGSGTDFTFTISSLQPEDIATYYCQQWEGNPRTFGQGTKVEIKR	binds	binds
Antibody 4 of Sequence Table 1, mAb format (antibody, human IgG1, kappa, N297A, V domains shown) VH: QVQLQESGPGLVRPSQTLSLTCTVSGFDMADTYMHWVRQRPGRGLEWMGRIEPAGGHTKYNPSLKSRVTITRDTSKNQVSLRLSSVTAADTAVYYCVRSGGLPDMWGQGSLVTVSS VL: DIQMTQSPSSLSASVGDRVTITCRASSSVSYMYWYQQKPGKAPKLLIYGASNLASGVPSRFSGSGSGTDFTFTISSLQPEDIATYYCQQWEGNPRTFGQGTKVEIKR	binds	binds

Next, values leading:

binding [1]	binding [2]	Binder
binds	binds	Antibody 6 of Sequence Table 1, mAb format (antibody, human IgG1, kappa, N297A, V domains shown) VH: QVQLQESGPGLVRPSQTLSLTCTVSGFDMADTYMHWVRQRPGRGLEWMGRIEPAGGHTKYNPSLKSRVTITRDTSKNQVSLRLSSVTAADTAVYYCVRSGGLPDMWGQGSLVTVSS VL: DIQMTQSPSSLSASVGDRVTITCRASQGVEYMYWYQQKPGKAPKLLIYSASNLASGVPSRFSGSGSGTDFTFTISSLQPEDIATYYCQQWEGNPRTFGQGTKVEIKR
binds	binds	Antibody 7 of Sequence Table 1, mAb format (antibody, human IgG1, kappa, N297A, V domains shown) VH: QVQLQESGPGLVRPSQTLSLTCTVSGFDMGDTYMHWVRQRPGRGLEWMGRIEPAAGHTKYNPSLKSRVTITRDTSKNQVSLRLSSVTAADTAVYYCVRSGGLPDIWGQGSLVTVSS VL: DIQMTQSPSSLSASVGDRVTITCRASQGVEYMYWYQQKPGKAPKLLIYGASNLASGVPSRFSGSGSGTDFTFTISSLQPEDIATYYCQQWEGNPRTFGQGTKVEIKR
binds	binds	Antibody 8 of Sequence Table 1, mAb format (antibody, human IgG1, kappa, N297A, V domains shown) VH: QVQLQESGPGLVRPSQTLSLTCTVSGFDMQSTYMHWVRQRPGRGLEWMGRIEPAGGHTKYNPSLKSRVTITRDTSKNQVSLRLSSVTAADTAVYYCVRSGGLPDVWGQGSLVTVSS VL: DIQMTQSPSSLSASVGDRVTITCRASSSVSYMYWYQQKPGKAPKLLIYGASNLASGVPSRFSGSGSGTDFTFTISSLQPEDIATYYCQQWEGNPRTFGQGTKVEIKR

— US20250109210A1 (ABSCI, published 2025)
